{
  "source": "patent US11485762B2",
  "about": "“Compositions and methods for inhibition of L-plastin activity in osteoclasts to reduce bone loss” (University of Maryland, Baltimore, priority 2017, dated 2022)",
  "molecules": {"B1": {"name": "FL-LPL: HA-TAT fused full-length L-plastin protein (70-75 kDa), purified from bacterial expression vector pTAT-HA (protein, UniProt P13796 1-627, looked up)", "chain": "MARGSVSDEEMMELREAFAKVDTDGNGYISFNELNDLFKAACLPLPGYRVREITENLMATGDLDQDGRISFDEFIKIFHGLKSTDVAKTFRKAINKKEGICAIGGTSEQSSVGTQHSYSEEEKYAFVNWINKALENDPDCRHVIPMNPNTNDLFNAVGDGIVLCKMINLSVPDTIDERTINKKKLTPFTIQENLNLALNSASAIGCHVVNIGAEDLKEGKPYLVLGLLWQVIKIGLFADIELSRNEALIALLREGESLEDLMKLSPEELLLRWANYHLENAGCNKIGNFSTDIKDSKAYYHLLEQVAPKGDEEGVPAVVIDMSGLREKDDIQRAECMLQQAERLGCRQFVTATDVVRGNPKLNLAFIANLFNRYPALHKPENQDIDWGALEGETREERTFRNWMNSLGVNPRVNHLYSDLSDALVIFQLYEKIKVPVDWNRVNKPPYPKLGGNMKKLENCNYAVELGKNQAKFSLVGIGGQDLNEGNRTLTLALIWQLMRRYTLNILEEIGGGQKVNDDIIVNWVNETLREAKKSSSISSFKDPKISTSLPVLDLIDAIQPGSINYDLLKTENLNDDEKLNNAKYAISMARKIGARVYALPEDLVEVNPKMVMTVFACLMGKGMKRV", "modifications": "full-length HA-TAT tag", "notes": "HA-TAT fused full-length L-plastin protein (70-75 kDa), purified from bacterial expression vector pTAT-HA"}},
  "system": "osteoclasts",
  "assay": "Dose- and time-dependent uptake of TAT-fused FL-LPL by osteoclasts (HA immunoblot)",
  "assay_type": "cell-based, mouse",
  "note": "Some results come without the dose or concentration used.",
  "data": [
    {"molecule": "B1", "values": [
      {"measurement": "dose of maximum uptake", "setting": "HA immunoblot of osteoclast lysates", "value": "100 to 200", "unit": "nM"},
      {"measurement": "transduced protein level reduced from", "setting": "in osteoclasts", "value": "≥ 12", "unit": "h"},
      {"measurement": "transduced protein stable for up to", "setting": "in osteoclasts", "value": "6 to 8", "unit": "h"}
    ]}
  ]
}
